Source: US4772587A, “Dipeptide derivative of fatty acid” (Suntory Limited, priority 1985, dated 1988)
Non-standard residues stand in square brackets, D forms with d. Residues, ends and D or L forms follow the SMILES beside them. *: point of attachment. Oleoyl = CCCCCCCC/C=C\CCCCCCCC(=O)*; Stearoyl = CCCCCCCCCCCCCCCCCC(=O)*; Palmitoyl = CCCCCCCCCCCCCCCC(=O)*; Nle = CCCC[CH](N)C(=O)O

Test system: experimental amnesia caused in rats by scopolamine
Test: Preventive effect against experimental amnesia caused in rats by scopolamine (passive avoidance learning)
Assay type: in vivo, Wister male rats
Conditions: one hour before learning
Procedure: Several of the anti-prolyl endopeptidase compounds of the present invention were checked for their ability to prevent the inhibition of long-term memory fixation by scopolamine. Solutions of physiological saline (0.3 ml) that contained selected compounds of the present inventions in varying amounts ([…], 0.25 mg, 0.1 mg, 0.025 mg and 0.010 mg/kg) were administered intraperitoneally once a day to Wister male rats (100-120 g). One hour after the administration, electric shocks (1.7 mA) were applied to the rats so that they would acquire passive avoidance learning. Immediately thereafter, scopolamine was administered intraperitoneally to each rat in an amount of 3 mg per kg of body weight.
The result of the test was assessed both 24 hours and 48 hours after the administration of scopolamine. The number of amnesic rats and of sound rats was counted for each of the control group (rats to which the test compounds had not been administered but to which only scopolamine and physiological saline had been administered intraperitoneally and the treated group (rats to which both the test compound and scopolamine had been administered). The results are shown in Table 3.

Row | SMILES | Learning: Initial avoidance time (sample 25 μg/kg i.p.) [s] | Learning: No. of avoidance during learning (sample 25 μg/kg i.p.) | Learning: Initial avoidance time (sample 100 μg/kg i.p.) [s] | Learning: No. of avoidance during learning (sample 100 μg/kg i.p.) | Learning: Initial avoidance time (sample 250 μg/kg i.p.) [s] | Learning: No. of avoidance during learning (sample 250 μg/kg i.p.) | Learning: Initial avoidance time (sample 1 mg/kg i.p.) [s] | Learning: No. of avoidance during learning (sample 1 mg/kg i.p.) | Learning: Initial avoidance time (sample 10 μg/kg i.p.) [s] | Learning: No. of avoidance during learning (sample 10 μg/kg i.p.)
1 | CCCCCCCC/C=C\CCCCCCCC(=O)NC(CC(C)C)C(=O)NC(CC(C)C)C(=O)N1CCCC1C=O (stereo not drawn) [SUAM 1158, oleoyl-Leu-Leu-Pro-CHO] (Oleoyl-Leu-Leu-Pro-aldehyde; configuration not given here) | 1.7 | 2.3 | 2.8 | 3.0 |  |  |  |  |  | 
2 | CCCCCCCCCCCCCCCC(=O)NC(CC(C)C)C(=O)N1CCCC1C=O (stereo not drawn) [SUAM 1155, palmitoyl-Leu-Pro-CHO] (Palmitoyl-Leu-Pro-aldehyde; configuration not given here) |  |  | 2.2 | 3.0 |  |  |  |  |  | 
3 | CCCCCCCC/C=C\CCCCCCCC(=O)NC(CCCC)C(=O)N1CCCC1C=O (stereo not drawn) [SUAM 1166, oleoyl-norLeu-Pro-CHO] (Oleoyl-[Nle]-Pro-aldehyde; configuration not given here) | 3.7 | 2.1 |  |  |  |  |  |  |  | 
4 | CCCCCCCC/C=C\CCCCCCCC(=O)NC(C(=O)N1CCCC1C=O)C(C)C (stereo not drawn) [SUAM 1156, oleoyl-Val-Pro-CHO] (Oleoyl-Val-Pro-aldehyde; configuration not given here) |  |  | 1.8 | 1.6 | 2.1 | 2.8 | 3.5 | 2.8 |  | 
5 | CCCCCCCC/C=C\CCCCCCCC(=O)N[C@@H](Cc1ccccc1)C(=O)N1CCC[C@H]1C=O [SUAM 1212, oleoyl-Phe-Pro-CHO] (Oleoyl-Phe-Pro-aldehyde) | 2.7 | 2.4 |  |  |  |  |  |  |  | 
6 | CCCCCCCC/C=C\CCCCCCCC(=O)N1CCCC1C(=O)N1CCCC1C=O (stereo not drawn) [SUAM 1215, Oleoyl-Pro-Pro-CHO] (Oleoyl-Pro-Pro-aldehyde; configuration not given here) | 3.2 | 1.8 |  |  |  |  |  |  | 2.2 | 2.4
7 | CCCCCCCC/C=C\CCCCCCCC(=O)NC(CC(C)C)C(=O)N1CCCC1C=O (stereo not drawn) [SUAM 1140, Oleoyl-Leu-Pro-CHO] (Oleoyl-Leu-Pro-aldehyde; configuration not given here) | 2.2 | 2.0 | 3.1 | 1.8 | 1.7 | 2.4 | 9.4 | 1.6 | 4.7 | 2.0
8 | CCCCCCCCCCCCCCCCCC(=O)NC(CC(C)C)C(=O)N1CCCC1C=O (stereo not drawn) [SUAM 1154, stearoyl-Leu-Pro-CHO] (Stearoyl-Leu-Pro-aldehyde; configuration not given here) |  |  | 4.7 | 2.0 |  |  |  |  |  | 
9 | CCCCCCCC/C=C\CCCCCCCC(=O)NC(CCSC)C(=O)N1CCCC1C=O (stereo not drawn) [SUAM 1214, oleoyl-Met-Pro-CHO] (Oleoyl-Met-Pro-aldehyde; configuration not given here) | 2.2 | 2.0 | 1.8 | 1.6 | 2.1 | 2.8 | 9.5 | 1.6 | 4.6 | 1.9
